Measured values from US6887705B1, “Tyrosine phosphorylated cleavage furrow-associated proteins (PSTPIPs)” (Genentech, Inc., priority 1997, dated 2005).
Results are given in words; binding and its absence hold for the method and conditions named. Binding seen in cells or lysates may run through a third protein. Some results given as binding are weak or reduced against the parent protein; the word gives no strength. Tags and fused reporters may be left off the sequences shown.

T1: GST-PST-rich+CTH PTP HSCF (GST fusion of PTP HSCF amino acids 304-453) (UniProt Q61152)
T1 sequence (looked up): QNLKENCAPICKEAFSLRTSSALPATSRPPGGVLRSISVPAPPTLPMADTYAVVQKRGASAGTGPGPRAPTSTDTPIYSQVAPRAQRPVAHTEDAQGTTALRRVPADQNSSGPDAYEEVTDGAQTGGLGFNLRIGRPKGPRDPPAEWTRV


target: T1, GST-PST-rich+CTH PTP HSCF (GST fusion of PTP HSCF amino acids 304-453); test: GST-PTP HSCF pulldown of in vitro translated PST PIP

Row | Molecule | binding
1 | full-length PSTPIP tagged with the FLAG epitope at the C-terminus (other, In vitro transcribed/translated in rabbit reticulocyte lysate, or expressed in COS cells) MMAQLQFRDAFWCRDFTAHTGYEVLLQRLLDGRKMCKDVEELLRQRAQAEERYGKELVQIARKAGGQTEMNSLRTSFDSLKQQTENVGSAHIQLALALREELRSLEEFRERQKEQRKKYEAIMDRVQKSKLSLYKKTMESKKAYDQKCRDADDAEQAFERVSANGHQKQVEKSQNKAKQCKESATEAERVYRQNIEQLERARTEWEQEHRTTCEAFQLQEFDRLTILRNALWVHCNQLSMQCVKDDELYEEVRLTLEGCDVEGDINGFIQSKSTGREPPAPVPYQNYYDREVTPLIGSPSIQPSCGVIKRFSGLLHGSPKTTPSAPAASTETLTPTPERNELVYASIEVQATQGNLNSSAQDYRALYDYTAQNSDELDISAGDILAVILEGEDGWWTVERNGQRGFVPGSYLEKLDYKDDDDK | binds

target: T1, GST-PST-rich+CTH PTP HSCF (GST fusion of PTP HSCF amino acids 304-453); test: GST-PTP HSCF pulldown of in vitro translated PST PIP deletion mutant

Row | Molecule | binding
2 | PST PIP missing 25 amino acids from the N-terminus (delta 25), C-terminal FLAG (from UniProt P97814 26-415) | binds

target: T1, GST-PST-rich+CTH PTP HSCF (GST fusion of PTP HSCF amino acids 304-453); test: GST-PTP HSCF pulldown of in vitro translated PST PIP mutant

Row | Molecule | binding
3 | PST PIP with leucine 224 mutated to alanine, C-terminal FLAG (from UniProt P97814 1-415) | binds
4 | PST PIP with phenylalanine 221 mutated to alanine, C-terminal FLAG (from UniProt P97814 1-415) | binds
5 | PST PIP with tryptophan 205 mutated to alanine, C-terminal FLAG (from UniProt P97814 1-415) | binds

target: full-length PSTPIP tagged with the FLAG epitope at the C-terminus (murine) (UniProt P97814); test: co-immunoprecipitation from co-transfected COS cells

Row | Molecule | binding
6 | PTP HSCF with P440 mutated to alanine, HA tagged (enzyme, UniProt Q61152 1-453, looked up, not shown: small tags and cut ends) MSRHTDLVRSFLEQLEARDYREGAILAREFSDIKARSVAWKSEGVCSTKAGSRLGNTNKNRYKDVVAYDETRVILSLLQEEGHGDYINANFIRGIDGSQAYIATQGPLPHTLLDFWRLVWEFGVKVILMACQETENGRRKCERYWAREQEPLKAGPFCITLTKETTLNADITLRTLQVTFQKEFRSVHQLQYMSWPDHGVPSSSDHILTMVEEARCLQGLGPGPLCVHCSAGCGRTGVLCAVDYVRQLLLTQTIPPNFSLFQVVLEMRKQRPAAVQTEEQYRFLYHTVAQLFSRTLQDTSPHYQNLKENCAPICKEAFSLRTSSALPATSRPPGGVLRSISVPAPPTLPMADTYAVVQKRGASAGTGPGPRAPTSTDTPIYSQVAPRAQRPVAHTEDAQGTTALRRVPADQNSSGPDAYEEVTDGAQTGGLGFNLRIGRAKGPRDPPAEWTRV | binds
7 | PTP HSCF with G442 mutated to alanine, HA tagged (enzyme, UniProt Q61152 1-453, looked up, not shown: small tags and cut ends) MSRHTDLVRSFLEQLEARDYREGAILAREFSDIKARSVAWKSEGVCSTKAGSRLGNTNKNRYKDVVAYDETRVILSLLQEEGHGDYINANFIRGIDGSQAYIATQGPLPHTLLDFWRLVWEFGVKVILMACQETENGRRKCERYWAREQEPLKAGPFCITLTKETTLNADITLRTLQVTFQKEFRSVHQLQYMSWPDHGVPSSSDHILTMVEEARCLQGLGPGPLCVHCSAGCGRTGVLCAVDYVRQLLLTQTIPPNFSLFQVVLEMRKQRPAAVQTEEQYRFLYHTVAQLFSRTLQDTSPHYQNLKENCAPICKEAFSLRTSSALPATSRPPGGVLRSISVPAPPTLPMADTYAVVQKRGASAGTGPGPRAPTSTDTPIYSQVAPRAQRPVAHTEDAQGTTALRRVPADQNSSGPDAYEEVTDGAQTGGLGFNLRIGRPKAPRDPPAEWTRV | binds
8 | PTP HSCF with R444 mutated to alanine, HA tagged (enzyme, UniProt Q61152 1-453, looked up, not shown: small tags and cut ends) MSRHTDLVRSFLEQLEARDYREGAILAREFSDIKARSVAWKSEGVCSTKAGSRLGNTNKNRYKDVVAYDETRVILSLLQEEGHGDYINANFIRGIDGSQAYIATQGPLPHTLLDFWRLVWEFGVKVILMACQETENGRRKCERYWAREQEPLKAGPFCITLTKETTLNADITLRTLQVTFQKEFRSVHQLQYMSWPDHGVPSSSDHILTMVEEARCLQGLGPGPLCVHCSAGCGRTGVLCAVDYVRQLLLTQTIPPNFSLFQVVLEMRKQRPAAVQTEEQYRFLYHTVAQLFSRTLQDTSPHYQNLKENCAPICKEAFSLRTSSALPATSRPPGGVLRSISVPAPPTLPMADTYAVVQKRGASAGTGPGPRAPTSTDTPIYSQVAPRAQRPVAHTEDAQGTTALRRVPADQNSSGPDAYEEVTDGAQTGGLGFNLRIGRPKGPADPPAEWTRV | binds
9 | PTP HSCF with P447 mutated to alanine, HA tagged (enzyme, UniProt Q61152 1-453, looked up, not shown: small tags and cut ends) MSRHTDLVRSFLEQLEARDYREGAILAREFSDIKARSVAWKSEGVCSTKAGSRLGNTNKNRYKDVVAYDETRVILSLLQEEGHGDYINANFIRGIDGSQAYIATQGPLPHTLLDFWRLVWEFGVKVILMACQETENGRRKCERYWAREQEPLKAGPFCITLTKETTLNADITLRTLQVTFQKEFRSVHQLQYMSWPDHGVPSSSDHILTMVEEARCLQGLGPGPLCVHCSAGCGRTGVLCAVDYVRQLLLTQTIPPNFSLFQVVLEMRKQRPAAVQTEEQYRFLYHTVAQLFSRTLQDTSPHYQNLKENCAPICKEAFSLRTSSALPATSRPPGGVLRSISVPAPPTLPMADTYAVVQKRGASAGTGPGPRAPTSTDTPIYSQVAPRAQRPVAHTEDAQGTTALRRVPADQNSSGPDAYEEVTDGAQTGGLGFNLRIGRPKGPRDPAAEWTRV | binds

Second part, the molecule after the results:

Row | binding | Molecule
10 | binds | PTP HSCF with R436 mutated to alanine, HA tagged (enzyme, UniProt Q61152 1-453, looked up, not shown: small tags and cut ends) MSRHTDLVRSFLEQLEARDYREGAILAREFSDIKARSVAWKSEGVCSTKAGSRLGNTNKNRYKDVVAYDETRVILSLLQEEGHGDYINANFIRGIDGSQAYIATQGPLPHTLLDFWRLVWEFGVKVILMACQETENGRRKCERYWAREQEPLKAGPFCITLTKETTLNADITLRTLQVTFQKEFRSVHQLQYMSWPDHGVPSSSDHILTMVEEARCLQGLGPGPLCVHCSAGCGRTGVLCAVDYVRQLLLTQTIPPNFSLFQVVLEMRKQRPAAVQTEEQYRFLYHTVAQLFSRTLQDTSPHYQNLKENCAPICKEAFSLRTSSALPATSRPPGGVLRSISVPAPPTLPMADTYAVVQKRGASAGTGPGPRAPTSTDTPIYSQVAPRAQRPVAHTEDAQGTTALRRVPADQNSSGPDAYEEVTDGAQTGGLGFNLAIGRPKGPRDPPAEWTRV
11 | binds | PTP HSCF with P443 mutated to alanine, HA tagged (enzyme, UniProt Q61152 1-453, looked up, not shown: small tags and cut ends) MSRHTDLVRSFLEQLEARDYREGAILAREFSDIKARSVAWKSEGVCSTKAGSRLGNTNKNRYKDVVAYDETRVILSLLQEEGHGDYINANFIRGIDGSQAYIATQGPLPHTLLDFWRLVWEFGVKVILMACQETENGRRKCERYWAREQEPLKAGPFCITLTKETTLNADITLRTLQVTFQKEFRSVHQLQYMSWPDHGVPSSSDHILTMVEEARCLQGLGPGPLCVHCSAGCGRTGVLCAVDYVRQLLLTQTIPPNFSLFQVVLEMRKQRPAAVQTEEQYRFLYHTVAQLFSRTLQDTSPHYQNLKENCAPICKEAFSLRTSSALPATSRPPGGVLRSISVPAPPTLPMADTYAVVQKRGASAGTGPGPRAPTSTDTPIYSQVAPRAQRPVAHTEDAQGTTALRRVPADQNSSGPDAYEEVTDGAQTGGLGFNLRIGRPKGARDPPAEWTRV
12 | binds | PTP HSCF with W450 mutated to alanine, HA tagged (enzyme, UniProt Q61152 1-453, looked up, not shown: small tags and cut ends) MSRHTDLVRSFLEQLEARDYREGAILAREFSDIKARSVAWKSEGVCSTKAGSRLGNTNKNRYKDVVAYDETRVILSLLQEEGHGDYINANFIRGIDGSQAYIATQGPLPHTLLDFWRLVWEFGVKVILMACQETENGRRKCERYWAREQEPLKAGPFCITLTKETTLNADITLRTLQVTFQKEFRSVHQLQYMSWPDHGVPSSSDHILTMVEEARCLQGLGPGPLCVHCSAGCGRTGVLCAVDYVRQLLLTQTIPPNFSLFQVVLEMRKQRPAAVQTEEQYRFLYHTVAQLFSRTLQDTSPHYQNLKENCAPICKEAFSLRTSSALPATSRPPGGVLRSISVPAPPTLPMADTYAVVQKRGASAGTGPGPRAPTSTDTPIYSQVAPRAQRPVAHTEDAQGTTALRRVPADQNSSGPDAYEEVTDGAQTGGLGFNLRIGRPKGPRDPPAEATRV

target: T1, GST-PST-rich+CTH PTP HSCF (GST fusion of PTP HSCF amino acids 304-453); test: PTP HSCF GST fusion pulldown of in vitro translated PST PIP mutant

Row | Molecule | binding
13 | PST PIP cluster mutant E110RQ to alanine, C-terminal FLAG (from UniProt P97814 1-415) | binds
14 | PST PIP cluster mutant E159RV to alanine, C-terminal FLAG (from UniProt P97814 1-415) | binds
15 | PST PIP cluster mutant L133YK to alanine, C-terminal FLAG (from UniProt P97814 1-415) | binds
16 | PST PIP cluster mutant N86VG to alanine, C-terminal FLAG (from UniProt P97814 1-415) | binds
17 | PST PIP cluster mutant Q169VE to alanine, C-terminal FLAG (from UniProt P97814 1-415) | binds
18 | PST PIP cluster mutant R62K to alanine, C-terminal FLAG (from UniProt P97814 1-415) | binds
19 | PST PIP cluster mutant R99EE to alanine, C-terminal FLAG (from UniProt P97814 1-415) | binds

Now from value to molecule:

Row | binding | Molecule
20 | binds | PST PIP cluster mutant D38VE to alanine, C-terminal FLAG (from UniProt P97814 1-415)
21 | binds | PST PIP cluster mutant D145QK to alanine, C-terminal FLAG (from UniProt P97814 1-415)
22 | binds | PST PIP cluster mutant E50ER to alanine, C-terminal FLAG (from UniProt P97814 1-415)
23 | binds | PST PIP cluster mutant I122MD to alanine, C-terminal FLAG (from UniProt P97814 1-415)
